Taken from: PubChem BioAssay AID1159508 (Drosophila RNAi Screening Center, 2015)
Shown is an unselected part of 812 reagents. Of all reagents, 18 (2.2%) are marked active. 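Calls include both increased and decreased ATP; roughly one in four reagents has no third replicate value.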 Further read-outs or replicates are left out here. Reagent sequences are not shown. Not given: the amount of reagent.

- Aim: 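How silencing genes for RNA-binding proteins changes cellular ATP without other treatment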
- Cells: Drosophila S2R+ cells
- Reagent: long dsRNA against Drosophila genes
- Timing: 5 days
- Detection: 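Luminescent ATP signal as a proxy for cell fitness after 5 days of RNAi, given as a z-score in each replicate and averaged over replicates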
- Direction: mean ATP z-score: higher = more total ATP luminescence
- Hit rule: In these data the active calls have mean ATP z-score at about -2 or lower, or at about 2 or higher
- Meaning of the calls: active = strong ATP change (up or down); inactive = no strong ATP change

Capr (Caprin) [DRSC10346] | mean ATP z-score = 0.349; activity call = inactive
Capr (Caprin) [DRSC26777] | mean ATP z-score = -0.773; activity call = inactive
smg (smaug) [DRSC11397] | mean ATP z-score = -0.349; activity call = inactive
smg (smaug) [DRSC28033] | mean ATP z-score = 0.902; activity call = inactive
Gld2 (GLD2 poly(A) polymerase) [DRSC23037] | mean ATP z-score = 1.61; activity call = inactive
Gld2 (GLD2 poly(A) polymerase) [DRSC27759] | mean ATP z-score = 1.05; activity call = inactive
Ref1 (RNA and export factor binding protein 1) [DRSC12497] | mean ATP z-score = 0.138; activity call = inactive
Ref1 (RNA and export factor binding protein 1) [DRSC22387] | mean ATP z-score = 0.453; activity call = inactive
mRRF2 (mitochondrial ribosome recycling factor 2) [DRSC16143] | mean ATP z-score = -0.267; activity call = inactive
mRRF2 (mitochondrial ribosome recycling factor 2) [DRSC35103] | mean ATP z-score = -0.59; activity call = inactive
Synj (Synaptojanin) [DRSC04526] | mean ATP z-score = -0.0878; activity call = inactive
Synj (Synaptojanin) [DRSC36874] | mean ATP z-score = -0.812; activity call = inactive
Srp54k (Signal recognition particle 54k) [DRSC41411] | mean ATP z-score = -0.208; activity call = inactive
Srp54k (Signal recognition particle 54k) [DRSC42223] | mean ATP z-score = 1.17; activity call = inactive
eEF1alpha2 (eukaryotic translation elongation factor 1 alpha 2) [DRSC14079] | mean ATP z-score = -0.457; activity call = inactive
eEF1alpha2 (eukaryotic translation elongation factor 1 alpha 2) [DRSC32103] | mean ATP z-score = -0.728; activity call = inactive
Zn72D (Zinc-finger protein at 72D) [DRSC11318] | mean ATP z-score = -0.265; activity call = inactive
Zn72D (Zinc-finger protein at 72D) [DRSC39229] | mean ATP z-score = -0.566; activity call = inactive
U2af50 (U2 small nuclear riboprotein auxiliary factor 50) [DRSC20297] | mean ATP z-score = -0.589; activity call = inactive
U2af50 (U2 small nuclear riboprotein auxiliary factor 50) [DRSC37266] | mean ATP z-score = -0.608; activity call = inactive
Hrb87F (Heterogeneous nuclear ribonucleoprotein at 87F) [DRSC29600] | mean ATP z-score = 0.603; activity call = inactive
Hrb87F (Heterogeneous nuclear ribonucleoprotein at 87F) [DRSC35793] | mean ATP z-score = 0.0489; activity call = inactive
BicC (Bicaudal C) [DRSC02005] | mean ATP z-score = 0.441; activity call = inactive
BicC (Bicaudal C) [DRSC29676] | mean ATP z-score = -0.231; activity call = inactive
TH1 [DRSC20289] | mean ATP z-score = 1.39; activity call = inactive
TH1 [DRSC34601] | mean ATP z-score = -0.166; activity call = inactive
Srp9 (Signal recognition particle 9) [DRSC10973] | mean ATP z-score = -0.106; activity call = inactive
Srp9 (Signal recognition particle 9) [DRSC40955] | mean ATP z-score = -0.267; activity call = inactive
Srp68 (Signal recognition particle 68) [DRSC28655] | mean ATP z-score = 3.87; activity call = active
Srp68 (Signal recognition particle 68) [DRSC36443] | mean ATP z-score = -0.00714; activity call = inactive
U3-55K (U3 small nuclear riboprotein factor 55K) [DRSC29090] | mean ATP z-score = -0.0868; activity call = inactive
U3-55K (U3 small nuclear riboprotein factor 55K) [DRSC40959] | mean ATP z-score = 0.429; activity call = inactive
eIF2D (eukaryotic translation initiation factor 2D) [DRSC13916] | mean ATP z-score = 0.818; activity call = inactive
eIF2D (eukaryotic translation initiation factor 2D) [DRSC42710] | mean ATP z-score = 0.349; activity call = inactive
CG31957 [DRSC00207] | mean ATP z-score = 1.62; activity call = inactive
CG31957 [DRSC42712] | mean ATP z-score = 0.652; activity call = inactive
Ssrp (Structure specific recognition protein) [DRSC29959] | mean ATP z-score = 1.01; activity call = inactive
Ssrp (Structure specific recognition protein) [DRSC33199] | mean ATP z-score = 0.713; activity call = inactive
eIF3i (eukaryotic translation initiation factor 3 subunit i) [DRSC32224] | mean ATP z-score = 0.901; activity call = inactive
eIF3i (eukaryotic translation initiation factor 3 subunit i) [DRSC32225] | mean ATP z-score = 0.2; activity call = inactive
SNRPG (Small nuclear ribonucleoprotein G) [DRSC20207] | mean ATP z-score = -0.333; activity call = inactive
SNRPG (Small nuclear ribonucleoprotein G) [DRSC35622] | mean ATP z-score = 0.605; activity call = inactive
